The experiment concerns the target EPRS (glutamyl-prolyl tRNA synthetase) (UniProt P07814). The experiment is described as follows: co-immunoprecipitation and immunocytochemistry in LC319 cells.

Chains of the proteins cited; added tags and fusions are not shown. Lines headed by an entry give the natural chain unless they say otherwise; changes in a name come on top.
UniProt P07814: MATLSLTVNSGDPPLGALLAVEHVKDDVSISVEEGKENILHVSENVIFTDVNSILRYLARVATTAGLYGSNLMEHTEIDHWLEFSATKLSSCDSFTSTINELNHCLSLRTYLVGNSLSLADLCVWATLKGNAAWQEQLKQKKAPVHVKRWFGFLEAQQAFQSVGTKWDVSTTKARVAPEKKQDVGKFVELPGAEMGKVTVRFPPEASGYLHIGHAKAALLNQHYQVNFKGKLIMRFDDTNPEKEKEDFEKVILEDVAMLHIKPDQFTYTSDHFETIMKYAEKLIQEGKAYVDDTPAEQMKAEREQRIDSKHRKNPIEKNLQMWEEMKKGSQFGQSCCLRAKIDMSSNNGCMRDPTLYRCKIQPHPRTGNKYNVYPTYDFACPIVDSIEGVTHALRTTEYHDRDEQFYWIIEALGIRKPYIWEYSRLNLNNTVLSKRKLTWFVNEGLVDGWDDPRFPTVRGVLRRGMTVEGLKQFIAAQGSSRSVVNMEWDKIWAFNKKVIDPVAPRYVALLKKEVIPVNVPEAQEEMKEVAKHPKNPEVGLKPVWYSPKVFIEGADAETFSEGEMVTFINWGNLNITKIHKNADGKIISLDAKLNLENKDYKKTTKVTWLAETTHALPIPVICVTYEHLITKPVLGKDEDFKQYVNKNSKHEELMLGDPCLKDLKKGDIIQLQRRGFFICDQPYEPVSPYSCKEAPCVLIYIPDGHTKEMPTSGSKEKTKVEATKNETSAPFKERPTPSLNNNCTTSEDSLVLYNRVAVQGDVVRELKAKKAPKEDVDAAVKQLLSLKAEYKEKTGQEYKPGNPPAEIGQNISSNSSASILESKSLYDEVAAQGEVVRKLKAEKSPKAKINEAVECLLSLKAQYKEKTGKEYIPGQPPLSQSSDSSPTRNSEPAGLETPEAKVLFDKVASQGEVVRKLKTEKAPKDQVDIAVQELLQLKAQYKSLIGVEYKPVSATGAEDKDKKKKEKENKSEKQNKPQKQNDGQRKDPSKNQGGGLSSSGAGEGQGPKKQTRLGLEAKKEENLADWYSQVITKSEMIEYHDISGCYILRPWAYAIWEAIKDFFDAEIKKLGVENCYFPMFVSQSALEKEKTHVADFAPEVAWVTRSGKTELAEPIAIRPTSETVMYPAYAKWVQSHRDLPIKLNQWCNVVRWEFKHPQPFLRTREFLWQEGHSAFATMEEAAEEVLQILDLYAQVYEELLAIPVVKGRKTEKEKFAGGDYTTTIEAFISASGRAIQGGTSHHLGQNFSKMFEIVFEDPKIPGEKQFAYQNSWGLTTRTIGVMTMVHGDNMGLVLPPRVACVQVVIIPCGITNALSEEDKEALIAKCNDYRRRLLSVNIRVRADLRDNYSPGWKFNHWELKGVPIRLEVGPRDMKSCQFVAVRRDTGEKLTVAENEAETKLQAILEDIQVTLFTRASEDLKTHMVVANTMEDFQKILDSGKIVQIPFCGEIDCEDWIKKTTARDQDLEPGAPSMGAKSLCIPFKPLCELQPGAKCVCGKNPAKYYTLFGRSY
UniProt Q9NX74: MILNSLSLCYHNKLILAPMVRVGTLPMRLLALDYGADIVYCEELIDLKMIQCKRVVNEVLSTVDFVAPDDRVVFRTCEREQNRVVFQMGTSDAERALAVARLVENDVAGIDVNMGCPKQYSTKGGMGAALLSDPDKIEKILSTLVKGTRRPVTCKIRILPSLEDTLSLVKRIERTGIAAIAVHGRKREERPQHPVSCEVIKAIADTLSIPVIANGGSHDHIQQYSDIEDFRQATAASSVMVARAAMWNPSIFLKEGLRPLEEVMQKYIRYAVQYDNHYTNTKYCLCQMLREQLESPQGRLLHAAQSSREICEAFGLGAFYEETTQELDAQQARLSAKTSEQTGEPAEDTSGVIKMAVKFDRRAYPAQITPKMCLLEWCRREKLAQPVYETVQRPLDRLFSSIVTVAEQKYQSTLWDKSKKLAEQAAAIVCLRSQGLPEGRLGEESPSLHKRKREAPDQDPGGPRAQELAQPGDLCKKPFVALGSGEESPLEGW

Results are given in words; binding and its absence hold for the method and conditions named. In cells and extracts the contact can be indirect. Some results given as binding are weak or reduced against the parent protein; the word gives no strength.

Consider “endogenous IMS-E21 (URLC8) (from UniProt Q9NX74 1-493) (enzyme)”, for which the binding result is listed as “binds”.

Values taken from patent publication US20080119428A1.
